Consider one molecule from patent publication US20230125052A1, “RED BLOOD CELL-DERIVED VESICLE” (Imperial College Innovations Limited, priority 2019, published 2023).

These are yes or no findings as the source states them, for the method shown. Some entries that bind do so weakly or less than the wild type.

The assay concerns the target active GPIIb-IIIa (αIIbβ3) integrin on thrombin-activated platelets (sheep). Description: platelet aggregation inhibition in PRP, thrombin-activated.

Take RGDFV (head-to-tail cyclic peptide; d-Phe at position 4) [cyclo(Arg-Gly-Asp-d-Phe-Val), free]: the binding entry is “binds”.
